Data: article PMC10901237
These are yes or no findings as the source states them, for the method shown. Binding seen in cells or lysates may run through a third protein. Some entries that bind do so weakly or less than the wild type.

Protein sequences, listed by entry. Tags and fused reporters are not part of them.
UniProt Q5TZA2: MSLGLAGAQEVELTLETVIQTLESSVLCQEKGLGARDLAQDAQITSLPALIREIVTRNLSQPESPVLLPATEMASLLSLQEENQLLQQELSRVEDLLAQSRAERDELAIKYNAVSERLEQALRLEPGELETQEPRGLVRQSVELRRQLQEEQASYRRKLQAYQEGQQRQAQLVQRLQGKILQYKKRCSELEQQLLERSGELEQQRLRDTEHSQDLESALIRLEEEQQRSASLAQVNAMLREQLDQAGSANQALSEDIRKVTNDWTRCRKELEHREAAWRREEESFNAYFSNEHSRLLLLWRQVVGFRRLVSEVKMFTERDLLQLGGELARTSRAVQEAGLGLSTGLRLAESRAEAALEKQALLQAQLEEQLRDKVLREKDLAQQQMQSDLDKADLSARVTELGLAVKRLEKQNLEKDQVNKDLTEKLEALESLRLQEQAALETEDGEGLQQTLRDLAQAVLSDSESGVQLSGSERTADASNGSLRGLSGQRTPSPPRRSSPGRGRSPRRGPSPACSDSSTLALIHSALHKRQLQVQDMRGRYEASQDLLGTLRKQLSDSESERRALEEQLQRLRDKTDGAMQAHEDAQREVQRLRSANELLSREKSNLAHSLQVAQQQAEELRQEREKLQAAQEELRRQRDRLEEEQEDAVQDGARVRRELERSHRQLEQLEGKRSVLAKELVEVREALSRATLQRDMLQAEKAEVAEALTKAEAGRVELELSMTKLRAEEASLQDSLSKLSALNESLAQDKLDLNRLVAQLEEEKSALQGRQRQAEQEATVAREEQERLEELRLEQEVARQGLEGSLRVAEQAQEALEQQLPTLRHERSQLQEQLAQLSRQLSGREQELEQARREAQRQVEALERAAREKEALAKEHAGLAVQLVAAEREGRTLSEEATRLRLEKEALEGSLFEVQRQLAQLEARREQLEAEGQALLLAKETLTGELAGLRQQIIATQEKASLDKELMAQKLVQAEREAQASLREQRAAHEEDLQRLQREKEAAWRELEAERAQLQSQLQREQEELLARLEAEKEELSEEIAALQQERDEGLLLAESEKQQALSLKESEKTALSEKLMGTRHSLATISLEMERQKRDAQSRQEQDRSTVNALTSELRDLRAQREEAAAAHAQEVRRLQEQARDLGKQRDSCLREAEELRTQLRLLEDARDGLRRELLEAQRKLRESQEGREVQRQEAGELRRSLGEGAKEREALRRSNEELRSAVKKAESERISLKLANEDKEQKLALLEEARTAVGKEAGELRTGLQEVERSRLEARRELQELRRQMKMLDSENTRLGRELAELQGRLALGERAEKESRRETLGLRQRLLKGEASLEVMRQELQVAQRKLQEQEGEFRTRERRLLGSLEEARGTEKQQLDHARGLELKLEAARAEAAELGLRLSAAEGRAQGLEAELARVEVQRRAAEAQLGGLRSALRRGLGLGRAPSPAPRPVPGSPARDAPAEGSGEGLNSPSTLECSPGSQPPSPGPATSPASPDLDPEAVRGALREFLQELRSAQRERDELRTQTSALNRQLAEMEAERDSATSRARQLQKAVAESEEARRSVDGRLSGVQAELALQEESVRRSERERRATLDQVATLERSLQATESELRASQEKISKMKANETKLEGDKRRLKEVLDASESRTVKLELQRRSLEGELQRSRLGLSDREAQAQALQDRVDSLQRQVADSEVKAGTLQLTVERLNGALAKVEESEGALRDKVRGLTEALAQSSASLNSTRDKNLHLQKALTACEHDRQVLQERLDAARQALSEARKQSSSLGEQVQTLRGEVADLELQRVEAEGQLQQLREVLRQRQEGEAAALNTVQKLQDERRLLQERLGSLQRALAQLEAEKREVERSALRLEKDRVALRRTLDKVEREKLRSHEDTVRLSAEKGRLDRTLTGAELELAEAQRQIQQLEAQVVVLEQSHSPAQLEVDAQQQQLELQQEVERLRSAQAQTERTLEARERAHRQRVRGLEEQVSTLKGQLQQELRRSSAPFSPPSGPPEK
UniProt Q15154: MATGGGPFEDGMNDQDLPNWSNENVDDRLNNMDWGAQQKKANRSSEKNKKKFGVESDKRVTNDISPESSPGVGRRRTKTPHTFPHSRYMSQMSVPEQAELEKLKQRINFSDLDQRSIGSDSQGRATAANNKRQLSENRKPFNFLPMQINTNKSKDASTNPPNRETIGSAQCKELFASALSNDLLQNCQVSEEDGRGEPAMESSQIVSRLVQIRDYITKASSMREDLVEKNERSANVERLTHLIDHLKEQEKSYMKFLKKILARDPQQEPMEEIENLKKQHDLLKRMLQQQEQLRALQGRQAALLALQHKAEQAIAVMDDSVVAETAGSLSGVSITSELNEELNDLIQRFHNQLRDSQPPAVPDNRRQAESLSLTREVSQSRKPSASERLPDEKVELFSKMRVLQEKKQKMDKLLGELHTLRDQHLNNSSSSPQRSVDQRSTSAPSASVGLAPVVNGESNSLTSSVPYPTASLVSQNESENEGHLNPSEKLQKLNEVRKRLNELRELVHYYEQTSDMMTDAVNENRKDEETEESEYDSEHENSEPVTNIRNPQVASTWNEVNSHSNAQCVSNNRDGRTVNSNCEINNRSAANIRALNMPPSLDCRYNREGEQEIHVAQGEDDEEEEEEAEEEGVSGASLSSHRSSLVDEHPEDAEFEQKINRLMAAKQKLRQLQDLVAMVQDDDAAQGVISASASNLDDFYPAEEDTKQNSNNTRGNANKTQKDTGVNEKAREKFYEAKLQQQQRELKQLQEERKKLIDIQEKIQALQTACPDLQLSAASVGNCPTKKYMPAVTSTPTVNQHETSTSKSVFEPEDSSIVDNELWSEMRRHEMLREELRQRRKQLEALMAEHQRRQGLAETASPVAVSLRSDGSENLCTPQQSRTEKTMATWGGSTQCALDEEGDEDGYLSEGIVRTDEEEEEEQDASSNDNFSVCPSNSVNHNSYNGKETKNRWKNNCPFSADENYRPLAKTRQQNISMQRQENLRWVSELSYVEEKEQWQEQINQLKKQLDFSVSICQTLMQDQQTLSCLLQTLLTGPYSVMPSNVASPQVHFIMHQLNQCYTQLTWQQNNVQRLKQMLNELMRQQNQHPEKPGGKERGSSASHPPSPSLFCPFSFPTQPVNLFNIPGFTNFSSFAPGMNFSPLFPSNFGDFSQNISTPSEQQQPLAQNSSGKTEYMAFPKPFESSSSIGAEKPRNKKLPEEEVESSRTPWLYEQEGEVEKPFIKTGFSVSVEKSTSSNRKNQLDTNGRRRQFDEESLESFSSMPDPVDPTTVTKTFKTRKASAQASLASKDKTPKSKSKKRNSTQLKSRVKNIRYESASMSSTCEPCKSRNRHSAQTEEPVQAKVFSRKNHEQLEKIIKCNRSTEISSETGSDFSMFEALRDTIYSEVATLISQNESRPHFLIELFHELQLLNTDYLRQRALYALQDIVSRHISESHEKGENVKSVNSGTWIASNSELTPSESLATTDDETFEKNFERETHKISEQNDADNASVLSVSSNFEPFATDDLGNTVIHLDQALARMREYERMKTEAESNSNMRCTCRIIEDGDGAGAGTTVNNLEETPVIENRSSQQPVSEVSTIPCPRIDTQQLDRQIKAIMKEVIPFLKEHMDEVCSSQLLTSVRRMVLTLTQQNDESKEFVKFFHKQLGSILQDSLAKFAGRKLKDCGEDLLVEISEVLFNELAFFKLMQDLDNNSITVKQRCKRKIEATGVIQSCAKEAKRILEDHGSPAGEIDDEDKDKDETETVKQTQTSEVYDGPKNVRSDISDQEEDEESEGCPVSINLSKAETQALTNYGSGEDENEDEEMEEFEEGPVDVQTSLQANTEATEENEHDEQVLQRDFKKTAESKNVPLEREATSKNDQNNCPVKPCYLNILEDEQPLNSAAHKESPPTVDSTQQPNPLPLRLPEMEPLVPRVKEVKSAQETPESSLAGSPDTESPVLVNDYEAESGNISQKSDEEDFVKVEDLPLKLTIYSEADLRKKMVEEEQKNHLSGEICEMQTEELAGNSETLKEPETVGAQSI

Legend:
FLAG-CROCC^FL = FLAG-CROCC^FL (UniProt Q5TZA2); assay: co-IP; lysates of RPE1 cells expressing FLAG-CROCC proteins, FLAG-M2 affinity gel 90 min at 4°C, blots for endogenous proteins; lysis buffer 50 mM Tris-HCl pH 8.0, 5 mM EDTA, 150 mM NaCl, 0.5% Triton X-100; also in CEP131-depleted cells and after 20 μM nocodazole for 2 h
[1] = target: PCM1 (endogenous, RPE1) (human (endogenous in RPE1)) (UniProt Q15154); assay: co-IP; reciprocal: the same RPE1 lysates immunoprecipitated with the PCM1 antibody (Protein A Sepharose), blots for PCM1, CROCC and FLAG; rabbit IgG as negative control

binding (FLAG-CROCC^FL)	binding [1]	Substance
binds		PCM1 (endogenous, RPE1) (from UniProt Q15154 1-2024)
	binds	FLAG-CROCC^FL (from UniProt Q5TZA2 1-2017)
